Results published in paper PMC5855875 (Chemical Science, 2017).

Assay: general procedure: Fmoc solid-phase peptide synthesis; 2-Chlorotrityl chloride resin (manufacturer's loading 1.2 mmol/g; determined loading 0.6 mmol/g); DIC/Oxyma (microwave); HATU/DIPEA; DIC/DMAP for esterification; HATU/DIPEA for c
Conditions: whole synthesis, overall, scale of the general procedure 0.102 mmol (170 mg resin)

Row | Substance | isolated yield [%]
1 | Ac-D-Ala1-Arg10-texiobactin | 12
2 | Ala2-Arg10-teixobactin | 10
3 | Ala3-Arg10-teixobactin | 11
4 | Ala6-Arg10-teixobactin | 12
5 | Ala7-Arg10-teixobactin | 12
6 | D-Ala4-Arg10-teixobactin | 12
7 | D-Ala5-Arg10-teixobactin | 11
